Results deposited as PubChem BioAssay AID1224830 (NIAID, 2016).
Shown is one part, drawn at random, of about 18,000 deposited reagents. About 2,900 of them (16%) were called active. 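Calls are made per well; low scores hint the gene aids the LPS response, high scores that it dampens it.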 Unmarked entries are inactive. Repeated entries: four replicate wells of each siRNA pool.

Test: 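Host factors that control LPS-induced TNF expression in human macrophages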 (primary screen)
Cells: human THP-1 monocytic leukaemia cells, TNF dual-luciferase reporter clone, PMA-differentiated to macrophage-like cells
Reagent: siRNA pool against human genes, 50 nM
Time to read-out: LPS for 4 h, given about 3 days after siRNA transfection
Challenge: bacterial LPS (TLR4 ligand), 10 ng/ml
Detection: 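Ratio of firefly to renilla light, scaled to the plate median and expressed as a robust z-score per replicate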
Direction: TNF reporter robust z-score: higher = stronger TNF reporter response to LPS
Hit rule: 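a well is active when its z-score exceeds 2.8 or falls below -1.5; control wells carry no call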

| gene knocked down | TNF reporter robust z-score |
| --- | --- |
| OR4F3 | -0.38 |
| OR4F3 | 1.58 |
| OR4F3 | -0.13 |
| OR4F3 | -0.89 |
| DAD1 | -1.22 |
| DAD1 | -1.6 (active) |
| DAD1 | -1.67 (active) |
| DAD1 | -1.42 |
| HKDC1 | 1.25 |
| HKDC1 | 0.63 |
| HKDC1 | 1.05 |
| HKDC1 | 1.55 |
| CIMAP3 | -0.81 |
| CIMAP3 | -0.86 |
| CIMAP3 | 0.07 |
| CIMAP3 | 0.31 |
| KCTD5 | 0.13 |
| KCTD5 | -0.9 |
| KCTD5 | -1.11 |
| KCTD5 | -0.49 |
| GRXCR2 | 1.16 |
| GRXCR2 | 0 |
| GRXCR2 | -0.23 |
| GRXCR2 | 0.19 |
| MYO1G | 1.58 |
| MYO1G | 1.51 |
| MYO1G | -0.1 |
| MYO1G | 0.32 |
| CKAP2L | -0.83 |
| CKAP2L | -0.8 |
| CKAP2L | -1.19 |
| CKAP2L | -0.59 |

Reformatted: results already given
{"gene knocked down":"KCTD5","TNF reporter robust z-score":-0.49}
{"gene knocked down":"GRXCR2","TNF reporter robust z-score":1.16}
{"gene knocked down":"GRXCR2","TNF reporter robust z-score":0}
{"gene knocked down":"GRXCR2","TNF reporter robust z-score":-0.23}
{"gene knocked down":"GRXCR2","TNF reporter robust z-score":0.19}

More records follow.
| gene knocked down | TNF reporter robust z-score |
| --- | --- |
| OR14A16 | 0.48 |
| OR14A16 | 0.36 |
| OR14A16 | 1.19 |
| OR14A16 | 0.4 |
| TNFRSF13C | 0.58 |
| TNFRSF13C | 0.46 |
| TNFRSF13C | 0.95 |
| TNFRSF13C | 0.06 |
| PSMD13 | -0.25 |
| PSMD13 | 0.64 |
| PSMD13 | -1.1 |
| PSMD13 | -0.03 |
| MORN5 | -0.76 |
| MORN5 | 1.34 |
| MORN5 | 2.66 |
| MORN5 | -0.7 |
